From ChEMBL document CHEMBL3988442, “University of Dundee, Small-Polar-MMV Screening Library” (2021).

Sequences of proteins named here, by UniProt entry; tags and fusion partners are left off. Residues count along the entry.
UniProt Q4DA54, 1-478: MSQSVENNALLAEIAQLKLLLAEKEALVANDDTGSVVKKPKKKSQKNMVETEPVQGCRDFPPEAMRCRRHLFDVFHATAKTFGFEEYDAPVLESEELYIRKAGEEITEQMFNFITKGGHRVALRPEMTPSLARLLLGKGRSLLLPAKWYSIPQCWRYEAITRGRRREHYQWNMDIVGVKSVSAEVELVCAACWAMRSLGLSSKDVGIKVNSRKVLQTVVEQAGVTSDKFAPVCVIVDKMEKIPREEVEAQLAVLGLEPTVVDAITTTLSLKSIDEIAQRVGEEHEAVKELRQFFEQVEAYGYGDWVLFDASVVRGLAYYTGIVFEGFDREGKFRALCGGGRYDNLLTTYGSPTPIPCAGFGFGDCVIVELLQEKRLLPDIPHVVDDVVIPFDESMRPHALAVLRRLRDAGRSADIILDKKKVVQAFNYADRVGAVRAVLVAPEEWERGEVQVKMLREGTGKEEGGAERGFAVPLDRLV

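Histidine-tRNA ligase, Trypanosoma cruzi CL Brener (UniProt Q4DA54). Enzyme assay of histidyl-tRNA synthetase; the read-out is not stated. Tested at 30 µM. Higher reads as stronger inhibition (inferred: compounds with an IC50 in retests scored well above the rest). About 69,000 compounds were tested under these conditions; 0.045% (about 31) showed 50% or more at least once.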

Each number is a percent effect as filed. The controls that fix the scale are not given in the record; negative values are as filed. Compounds were drawn at random from those tested, without regard to their results.

| Compound | Percent Effect |
|---|---|
| `CNC(=O)C1CC2(CCN(C(=O)c3csnn3)CC2)c2ccccc21` (configuration not stated) | 6.557 |
| `CCOCCCNC(=O)c1cc(C(C)C)nc(N2CCCCCC2)n1` | -24.59 |
| `CC(C)NC(=O)CNC(=O)C12CCC(=O)N1c1cc(Cl)ccc1S2` (configuration not stated) | 5.028 |
| `Cc1cc(C)n(CC2CCCCN2CCCS(N)(=O)=O)n1` (configuration not stated) | 2.642 |
| `Cc1nc(NC(=O)N(C)Cc2ccoc2)nn1C` | 6.704 |
| `Cc1cc(F)ccc1C(=O)N1C[C@@H]2COC[C@]2(CN(C)C)C1` | -2.454 |
| `COCC(=O)N1CCCC2(CCN(Cc3cccc(C)n3)C2=O)C1` (configuration not stated) | 4.301 |
| `CC1(C)CC(N(Cc2ccccc2)Cc2c[nH]cn2)CC(C)(C)N1` | 6.513 |
| `Cc1cccc(CN2C(=O)C[C@H]3[C@@H]2CCN3Cc2ccc(F)cc2)n1` | 3.365 |
| `CCCS(=O)(=O)N1CCC2(CC(C(=O)NCc3cccnc3)=NO2)C1` (configuration not stated) | 6.863 |
| `COc1cccc(/C=C/CCN2CCC(C(=O)N3CCCC3)CC2)c1` | -7.843 |
| `CN(Cc1cccc(OC(F)(F)F)c1)Cc1cnn(C)c1` | 4.972 |
| `COc1cc(N2C[C@@H]3CC[C@H](C2)N(CC2CCC2)C3=O)ncn1` | 2.632 |
| `CCc1cc(NCc2cccnc2N2CCCCC2)n2ncnc2n1` | 3.922 |
| `O=C(N1CCCCC1)N1CCCC1c1nnc2n1CCNC2` (configuration not stated) | 4.142 |
| `COc1ccc(C(N)c2cccc(S(C)(=O)=O)c2)cc1` (configuration not stated) | 1.132 |
| `COCC(=O)N1CC(c2ccnc(Nc3ccc(C)cn3)n2)C1` | 0.7463 |
| `CC(C)c1nnc2n1CCN(CCCS(=O)(=O)c1ccccc1)C2` | 3.053 |
| `Cc1cccnc1CNCC1(O)CCCN(CC(C)(C)C)C1=O` (configuration not stated) | 3.139 |
| `Cc1cccc(CN2CCN(C(=O)N(C)C)[C@@H]3CS(=O)(=O)C[C@@H]32)n1` | 4.082 |
| `CNC(=O)NCC1CCC2(CCN(C(=O)c3ccccc3)CC2)CO1` (configuration not stated) | 7.407 |
| `CCOC1CCN(C(=O)NCc2cccc(-n3cccn3)c2)CC1` | 5.752 |
| `OC1=C2C(=Nc3n[nH]c(O)c3C2c2ccccc2Cl)CCC1` (configuration not stated) | 3.627 |
| `CCOC[C@H]1CC[C@H]2[C@H](CCN2S(=O)(=O)Cc2ccccc2)O1` | 5.747 |
| `CC(=O)c1ccc(-n2c(C)cn(CCC#N)c2=O)cc1` | 2.439 |
| `CC(C)(C)c1ccc(S(=O)(=O)CCN2CCNC(=O)CC2)cc1` | 11.28 |
| `CC(=O)NC(C)CC(=O)NCc1cccnc1Oc1ccccc1C` (configuration not stated) | 1.626 |
| `O=C(NCc1cccnc1N1CCc2ccccc2C1)c1cnc[nH]1` | 1.064 |
| `CCN(CC)Cc1nc(Cc2cccc(C(F)(F)F)c2)no1` | 6.468 |
| `O=C(c1c2c(N3CCOCC3)ncnc2n2ccccc12)N1CCCC1` | 6.897 |
| `O=C(O)c1cnc(N2CC[C@H](N3CCOCC3)[C@H](CCCO)C2)c(Cl)c1` | -6.077 |
| `CC(C)=CCS(=O)(=O)Cc1noc(CC(C)C)n1` | 9.827 |
| `CCNc1cc2c(nn1)CCN(C(=O)c1cccc(CSC)c1)C2` | 13.61 |
| `CCc1c(C)sc(NC(=O)CN2CCN(CC)CC2)c1C(=O)OC` | 7.317 |
| `CCOCC1CN(C2CCCC2)Cc2cnn(CC3CCOCC3)c21` (configuration not stated) | 0.8772 |
| `Cc1n[nH]c(C2CN(C(=O)c3ccc(=O)n(C)c3)CCO2)n1` (configuration not stated) | 5.195 |
| `CC(=O)c1ccc(C(=O)N2CCCCC2c2nc[nH]n2)cc1` (configuration not stated) | 3.279 |
| `CN(C)C(CNC(=O)CCNC(=O)OCC(F)(F)F)c1ccsc1` (configuration not stated) | 9.091 |
| `Cc1ccc2c(c1)CN(C(=O)C1CCCCC1)C(CN(C)C)CO2` (configuration not stated) | -0.5405 |
| `Cc1cc(C(=O)N[C@H]2CC[C@@]3(CCC(=O)N3CC3CC3)CC2)no1` | 2.913 |
| `CS(=O)(=O)c1cn[nH]c1C1CCCCN1C(=O)c1cnccn1` (configuration not stated) | 0 |
| `CC(C)Oc1cccc2c1c(NC(=O)CN(C)C)nn2CC(F)(F)F` | 1.212 |
| `COc1cc(N2CCC3(CC2)OCC(=O)NC3C)ncn1` (configuration not stated) | 0.5587 |
| `CC(C)Oc1cccc(CNC(Cc2ccsc2)c2nccs2)c1` (configuration not stated) | 6.391 |
| `CC(C)NC(=O)C1CCN(Cn2ccc(-c3ccc(F)cc3)n2)CC1` | 4.902 |
| `Cc1nc(C)n(CC2CCCN2CC(=O)N(C)Cc2ccc(C)o2)n1` (configuration not stated) | 1.97 |
| `CCCNC(=O)CN1CCC(NCc2c(C)nn(C)c2OC)CC1` | 2.041 |
| `CCN(CC)C[C@H]1CN2CC[C@H]1C[C@@H]2CNC(=O)Nc1ccsc1` | 11.88 |
| `Cc1cc(C)n(C2CCCN(C(=O)c3cccc(F)c3F)C2)n1` (configuration not stated) | 4.933 |
| `CC(C)Nc1nc2c(s1)C(=O)CN(CC1CC1)C2` | -1.13 |

6 of the entries, repeated:

Compound	Percent Effect
CCN(CC)C[C@H]1CN2CC[C@H]1C[C@@H]2CNC(=O)Nc1ccsc1	11.88
Cc1cc(F)ccc1C(=O)N1C[C@@H]2COC[C@]2(CN(C)C)C1	-2.454
O=C(N1CCCCC1)N1CCCC1c1nnc2n1CCNC2 (configuration not stated)	4.142
CN(Cc1cccc(OC(F)(F)F)c1)Cc1cnn(C)c1	4.972
CCCS(=O)(=O)N1CCC2(CC(C(=O)NCc3cccnc3)=NO2)C1 (configuration not stated)	6.863
CCc1c(C)sc(NC(=O)CN2CCN(CC)CC2)c1C(=O)OC	7.317